± gives the uncertainty stated by the source. Many of these values have a large error.

The nature of this data set: self-splicing fitness, log relative to wild type (ln ratio); higher = more splicing; Tetrahymena group I intron in knt gene, E. coli kanamycin selection, DiMSum; sequences stand for … in CUCUCU…GGAGGGAAAAGUUAUCAGGCAUGCACCUGGUAGCUAGUCUUUAAACCAAUAGAUUGCAUCGGUUUAAAAGGCAAGACCGUCAAAUUGCGGGAAAGGGGUCAACAGCCGUUCAGUACCAAGUCUCAGGGGAAACUUUGAGAUGGCCUUGCAAAGGGUAUGGUAAUAAGCUGACGGACAUGGUCCUAACCACGCAGCCAAGUCCUAAGUCAACAGAUCUUCUGUUGAUAUGGAUGCAGUUCACAGACUAAAUGUCGGUCGGGGAAGAUGUAUUCUUCUCAUAAGAUAUAGUCGGACCUCUCCUUAAUGGGAGCUAGCGGAUGAAGUGAUGCAACACUGGAGCCGCUGGGAACUAAUUUGUAUGCGAAAGUAUAUUGAUUAGUUUUGGAGUACUCGUGGUCG
The method in brief:
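The eight P1ex-region nucleotides of an intron in the knt kanamycin-resistance gene on pET-22b(+) were all randomised and the library put into E. coli BL21(DE3). Six replicate transformations were grown overnight at 37°C or 30°C on LB agar with or without 25 μg/mL kanamycin, together with 100 μg/mL carbenicillin, 50 μM IPTG and 0.2% rhamnose. Colonies were pooled and amplicon-sequenced on an Illumina HiSeq 2500. Fitness from DiMSum is the error-weighted combination of wild-type-normalised replicate fold changes, kanamycin over none.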

Regarding AGCAAGCAAUAUUACGUCUC, under “37 °C”, the “self-splicing fitness (ln)” value was -2.57 ± 0.66.
For the sequence CUCGAGCAAUAUUACGAUCC, the “self-splicing fitness (ln)” value reads like this: (30 °C) -2.95 ± 1.1; (37 °C) -1.84 ± 1.1.
On to AUCAAGCAAUAUUACGCCGC, for which the “self-splicing fitness (ln)” value (37 °C) was -2.88 ± 0.75.
The same measure, in the same setting: with UAAGAGCAAUAUUACGUCCG the figure was -1.88 ± 0.56.
In the case of UGAGAGCAAUAUUACGAGAC, the “self-splicing fitness (ln)” value was -4.44 ± 0.46 (30 °C) and -2.59 ± 0.29 (37 °C).
Turning to AGGGAGCAAUAUUACGCCAA, the “self-splicing fitness (ln)” value (30 °C) is -3.47 ± 0.62.
For UAGGAGCAAUAUUACGCUUC, the “self-splicing fitness (ln)” value (37 °C) was -3.22 ± 0.52.
With CUUUAGCAAUAUUACGGCUC, the “self-splicing fitness (ln)” value (30 °C) is -2.71 ± 0.56.
As for UAGGAGCAAUAUUACGACAC, the “self-splicing fitness (ln)” value reads like this: (30 °C) -3.28 ± 0.75; (37 °C) -3.33 ± 1.
Regarding CCAGAGCAAUAUUACGUACU, the “self-splicing fitness (ln)” value (30 °C) is -4.58 ± 0.72.
For UCUCAGCAAUAUUACGACUG, the “self-splicing fitness (ln)” value is -2.79 ± 0.17 (30 °C) and -3.11 ± 0.28 (37 °C).
As to GGUAAGCAAUAUUACGUAGC, the “self-splicing fitness (ln)” value (37 °C) was 0.125 ± 0.52.
Turning to GUUUAGCAAUAUUACGUCGC, the “self-splicing fitness (ln)” value is, setting by setting: (30 °C) -1.67 ± 0.16; (37 °C) -0.462 ± 0.18.
With GACGAGCAAUAUUACGAGAU, the “self-splicing fitness (ln)” value (37 °C) is -2.81 ± 0.61.
Still for that read-out and setting: under UACAAGCAAUAUUACGCCCC stands -2.82 ± 0.62.
Consider CUAUAGCAAUAUUACGAAAA, for which the “self-splicing fitness (ln)” value (30 °C) was -4.1 ± 0.73.
With AUAUAGCAAUAUUACGUAGG, the “self-splicing fitness (ln)” value was -3.06 ± 0.21 (30 °C) and -0.744 ± 0.16 (37 °C).
Consider CAUUAGCAAUAUUACGGUAU, for which the “self-splicing fitness (ln)” value (30 °C) is -4.47 ± 0.72.
Turning to GGAGAGCAAUAUUACGUUAA, the “self-splicing fitness (ln)” value was -2.31 ± 0.51 (30 °C) and -2.64 ± 1.1 (37 °C).
Regarding CGAUAGCAAUAUUACGAAAC, the “self-splicing fitness (ln)” value (37 °C) is -2.54 ± 1.1.
Consider GCUGAGCAAUAUUACGACCG, for which the “self-splicing fitness (ln)” value runs as follows: (30 °C) -2.16 ± 0.66; (37 °C) 1.34 ± 0.62.
Consider AGAGAGCAAUAUUACGUGAC, for which the “self-splicing fitness (ln)” value (30 °C) is -2.11 ± 0.69.
Consider UCUAAGCAAUAUUACGGCCU, for which the “self-splicing fitness (ln)” value (37 °C) is -2.9 ± 0.53.
Same read-out and setting: under CCGCAGCAAUAUUACGAACC stands -1.37 ± 0.69.
Regarding CACGAGCAAUAUUACGGUAA, the “self-splicing fitness (ln)” value (30 °C) is -4.44 ± 0.59.
Take GGAGAGCAAUAUUACGGCAC: the “self-splicing fitness (ln)” value (37 °C) was -0.557 ± 0.51.
With UGCAAGCAAUAUUACGUGUA, the “self-splicing fitness (ln)” value by setting is: (30 °C) -1.96 ± 0.073; (37 °C) -1.35 ± 0.084.
In the case of UCAGAGCAAUAUUACGUAAC, under “37 °C”, the “self-splicing fitness (ln)” value is -2.94 ± 0.75.
As for AAAUAGCAAUAUUACGUGAC, the “self-splicing fitness (ln)” value (30 °C) is -1.53 ± 0.2 and the “self-splicing fitness (ln)” value (37 °C) was -3.22 ± 0.61.
Take UUUGAGCAAUAUUACGCACA: the “self-splicing fitness (ln)” value runs as follows: (30 °C) -2.5 ± 0.58; (37 °C) 0.0946 ± 0.83.
For the sequence UCGAAGCAAUAUUACGGCCC, the “self-splicing fitness (ln)” value (37 °C) was -2.27 ± 0.63.
Take AUUUAGCAAUAUUACGUAUC: under “30 °C”, the “self-splicing fitness (ln)” value was -3.57 ± 0.74.
With GAUUAGCAAUAUUACGAGAA, for the setting “30 °C”, the “self-splicing fitness (ln)” value was -3.39 ± 1.
Consider CGCGAGCAAUAUUACGUUGC, for which the “self-splicing fitness (ln)” value (37 °C) was -3.22 ± 0.52.
On to UCAUAGCAAUAUUACGGGCU, for which the “self-splicing fitness (ln)” value (30 °C) was -3.79 ± 0.52.
Regarding CUCUAGCAAUAUUACGCCAG, the “self-splicing fitness (ln)” value (37 °C) was -1.87 ± 0.57.
CGACAGCAAUAUUACGUACU: the “self-splicing fitness (ln)” value runs as follows: (30 °C) -1.26 ± 0.082; (37 °C) -0.578 ± 0.089.
Consider UCGUAGCAAUAUUACGACCA, for which, for the setting “37 °C”, the “self-splicing fitness (ln)” value was -1.13 ± 0.51.
UGGUAGCAAUAUUACGGCUG: the “self-splicing fitness (ln)” value runs as follows: (30 °C) -1.99 ± 0.15; (37 °C) -0.886 ± 0.26.
As for GAAGAGCAAUAUUACGCUGA, the “self-splicing fitness (ln)” value (30 °C) was -4.44 ± 0.74.
On the same count and under the same terms, under UUUUAGCAAUAUUACGUUGA stands -3.16 ± 0.76.
On the same count and under the same terms, with CGAAAGCAAUAUUACGCCUC the figure was -2.06 ± 0.66.
Consider CCAAAGCAAUAUUACGAUAC, for which, where the note is “37 °C”, the “self-splicing fitness (ln)” value was -1.7 ± 0.59.
For UAAUAGCAAUAUUACGCCCG, the “self-splicing fitness (ln)” value (30 °C) was -0.946 ± 0.6.
For the sequence UUCAAGCAAUAUUACGCUAG, the “self-splicing fitness (ln)” value is, setting by setting: (30 °C) -2.23 ± 0.23; (37 °C) -2.32 ± 0.26.
UAUGAGCAAUAUUACGGCCA: the “self-splicing fitness (ln)” value (30 °C) was -2.74 ± 0.64.
Consider GUUAAGCAAUAUUACGAAGA, for which, for the setting “37 °C”, the “self-splicing fitness (ln)” value is -2.51 ± 0.77.
CUUCAGCAAUAUUACGCGUU: the “self-splicing fitness (ln)” value (30 °C) was -2.33 ± 0.12 and the “self-splicing fitness (ln)” value (37 °C) is -2.7 ± 0.21.
Regarding CUUCAGCAAUAUUACGCCAC, the “self-splicing fitness (ln)” value (37 °C) was -1.37 ± 0.59.
Regarding GCGGAGCAAUAUUACGGCUU, for the setting “30 °C”, the “self-splicing fitness (ln)” value was -2.62 ± 0.62.
GUGGAGCAAUAUUACGGGGG: for the setting “37 °C”, the “self-splicing fitness (ln)” value was -2.6 ± 0.61.
Take CACGAGCAAUAUUACGUAAA: where the note is “30 °C”, the “self-splicing fitness (ln)” value is -5.2 ± 0.51.

For the origin of these results see the supplement of paper PMC7877785.
